No constants are given. Whether binding was seen depends on the method and setting. In cells and extracts the contact can be indirect. Some entries that bind do so weakly or less than the wild type.
Target: Met receptor tyrosine kinase (receptor for hepatocyte growth factor) (human (endogenous in 786-O, 786-O EveR and HCT116)) (UniProt P08581)
Assay: co-IP; total cell lysates of 786-O, 786-O EveR and HCT116 cells, in complete medium or treated 24 h with everolimus (0.5 uM); immunoprecipitated with anti-Met antibody, blotted with anti-Met and anti-FKBP12; normal IgG as negative control

Amino acid sequences for entries named in this document (tags omitted). Residues count along the entry.
UniProt P08581, residues 25-1390: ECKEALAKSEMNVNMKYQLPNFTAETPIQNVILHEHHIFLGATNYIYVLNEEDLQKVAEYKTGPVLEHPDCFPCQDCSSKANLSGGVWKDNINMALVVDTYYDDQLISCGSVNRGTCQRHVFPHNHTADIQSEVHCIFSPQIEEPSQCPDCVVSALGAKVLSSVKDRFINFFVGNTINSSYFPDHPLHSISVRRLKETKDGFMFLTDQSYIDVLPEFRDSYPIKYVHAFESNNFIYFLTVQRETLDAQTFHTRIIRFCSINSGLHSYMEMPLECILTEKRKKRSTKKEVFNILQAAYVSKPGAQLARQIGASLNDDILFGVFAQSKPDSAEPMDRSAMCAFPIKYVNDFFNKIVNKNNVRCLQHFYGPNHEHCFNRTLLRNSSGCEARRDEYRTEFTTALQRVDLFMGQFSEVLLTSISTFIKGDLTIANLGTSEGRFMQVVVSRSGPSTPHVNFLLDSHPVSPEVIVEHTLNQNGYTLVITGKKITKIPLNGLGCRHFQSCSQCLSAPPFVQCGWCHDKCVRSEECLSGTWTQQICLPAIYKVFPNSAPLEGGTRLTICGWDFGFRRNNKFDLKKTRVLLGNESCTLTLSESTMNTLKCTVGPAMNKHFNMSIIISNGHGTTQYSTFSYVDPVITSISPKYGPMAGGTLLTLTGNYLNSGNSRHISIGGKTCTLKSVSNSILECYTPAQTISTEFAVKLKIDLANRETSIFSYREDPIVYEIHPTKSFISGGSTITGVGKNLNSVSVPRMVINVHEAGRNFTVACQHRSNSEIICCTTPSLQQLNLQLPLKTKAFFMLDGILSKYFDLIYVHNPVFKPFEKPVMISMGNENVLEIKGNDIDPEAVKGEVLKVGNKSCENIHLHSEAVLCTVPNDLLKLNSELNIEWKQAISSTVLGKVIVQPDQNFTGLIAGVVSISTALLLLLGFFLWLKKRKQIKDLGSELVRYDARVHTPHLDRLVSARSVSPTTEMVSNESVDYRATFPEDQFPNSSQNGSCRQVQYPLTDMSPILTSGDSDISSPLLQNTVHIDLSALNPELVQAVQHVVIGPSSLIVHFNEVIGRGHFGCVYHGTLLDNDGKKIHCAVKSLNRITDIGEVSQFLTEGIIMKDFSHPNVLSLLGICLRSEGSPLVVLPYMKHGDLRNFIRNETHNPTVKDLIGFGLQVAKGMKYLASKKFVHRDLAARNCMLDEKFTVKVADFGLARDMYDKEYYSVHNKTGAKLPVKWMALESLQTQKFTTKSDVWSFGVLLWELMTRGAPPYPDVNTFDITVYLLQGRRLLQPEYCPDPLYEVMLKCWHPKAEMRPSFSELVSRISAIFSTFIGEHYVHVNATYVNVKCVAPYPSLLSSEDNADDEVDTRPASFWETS

binding: binds
Substance: FK506/rapamycin binding protein 12 (FKBP12) (from UniProt P62942 1-108)

Reference: article PMC5129993, “Everolimus induces Met inactivation by disrupting the FKBP12/Met complex” (Oncotarget, 2016)
